According to PubChem BioAssay (NCATS):
The shares of active, inactive and inconclusive entries below differ from those in the screen. Potencies beside an inconclusive call are fits to weak or partial responses and may not hold up. The source made the active and inactive calls. Calls come from the whole dose curve; as a rule, active = well fitted inhibition curve with a large enough effect; inconclusive = small, poorly fitted or top-dose-only effect; inactive = no such curve, though single readings can be large or run the other way.

Chains of the proteins cited; added tags and fusions are not shown. Lines headed by an entry give the natural chain unless they say otherwise; changes in a name come on top.
UniProt Q8WZA2: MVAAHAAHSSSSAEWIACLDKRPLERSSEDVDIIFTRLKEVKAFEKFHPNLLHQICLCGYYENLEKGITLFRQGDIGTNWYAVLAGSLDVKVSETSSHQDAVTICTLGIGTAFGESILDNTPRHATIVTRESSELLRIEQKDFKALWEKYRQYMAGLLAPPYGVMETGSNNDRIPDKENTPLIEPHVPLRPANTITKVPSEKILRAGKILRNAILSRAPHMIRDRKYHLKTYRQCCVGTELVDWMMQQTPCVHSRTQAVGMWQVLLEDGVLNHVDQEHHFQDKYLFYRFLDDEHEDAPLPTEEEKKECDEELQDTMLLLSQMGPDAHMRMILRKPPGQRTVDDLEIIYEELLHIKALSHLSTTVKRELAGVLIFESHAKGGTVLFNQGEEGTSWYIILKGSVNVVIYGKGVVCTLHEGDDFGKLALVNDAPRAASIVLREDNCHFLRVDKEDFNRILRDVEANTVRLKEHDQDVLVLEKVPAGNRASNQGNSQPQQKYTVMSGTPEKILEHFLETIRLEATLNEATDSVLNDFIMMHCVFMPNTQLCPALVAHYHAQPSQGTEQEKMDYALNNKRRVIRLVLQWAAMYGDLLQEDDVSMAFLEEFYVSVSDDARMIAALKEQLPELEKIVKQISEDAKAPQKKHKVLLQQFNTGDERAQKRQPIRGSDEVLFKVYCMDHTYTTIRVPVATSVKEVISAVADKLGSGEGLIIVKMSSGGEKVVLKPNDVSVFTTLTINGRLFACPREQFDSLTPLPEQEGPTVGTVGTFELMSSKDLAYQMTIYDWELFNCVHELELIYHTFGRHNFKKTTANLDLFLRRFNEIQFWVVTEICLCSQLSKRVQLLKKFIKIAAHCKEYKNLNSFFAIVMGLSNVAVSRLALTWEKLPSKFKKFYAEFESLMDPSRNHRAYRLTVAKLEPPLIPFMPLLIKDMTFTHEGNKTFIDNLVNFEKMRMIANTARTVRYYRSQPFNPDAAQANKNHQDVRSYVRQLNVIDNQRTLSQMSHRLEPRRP

molecular target: Rap guanine nucleotide exchange factor 4 (Homo sapiens) (UniProt Q8WZA2); experiment: Confirmatory qHTS for antagonist of cAMP-regulated guanine nucleotide exchange factor 4 (EPAC2) (AID 1645885); conditions: EPAC2 Rap1B-BODIPY-GDP exchange fluorescence, biochemical; activity change, negative = inhibition: at 12.7 µM (top of the series) unless noted; series mostly up to 114 µM; note: nearly all actives have a fitted effect of over 25% in size
% is set by controls: 0 for no effect and ±100 for the full control effect; potency is the fitted concentration of half-maximal effect.

Structure (SMILES) | activity change, negative = inhibition | Potency | outcome
Cn1cc(C(=O)N/N=C/C2=C(N3CCOCC3)C(=C\c3ccccc3)/CC2)ccc1=O | inactive: 0.884% | – | –
COc1ccc2c(c1)CCC1(C)CC(=O)C(Br)=C21 (stereo not given) | – | inconclusive: 21.3 µM [inhibitor, full curve] | –
O=C(O)c1ccc(N/N=C/c2cccc(C(F)(F)F)c2)cc1 | – | – | inactive
CCOC(=O)C1=C(N)c2ccccc2CC1C1CCCC1 (stereo not given) | – | inconclusive: 33.8 µM [inhibitor, single point] | –
COC(=O)C1=CN(Cc2cccs2)C=C(C(=O)OC)C1c1cccc(Cl)c1 | – | inconclusive: 3.01 µM [inhibitor, partial curve, poor fit] | –
CC(C)(C)[C@H]1CCC(=O)N([C@H](CN=[N+]=[N-])Cc2ccccc2)CC1 | – | inconclusive: 55.5 µM [inhibitor, partial curve] | –
CCCc1cc(=O)oc2cc(C)cc(OCC(=O)N[C@@H](CSCc3ccccc3)C(=O)O)c12 | – | inconclusive: 21.3 µM [inhibitor, single point] | –
Cc1ccc(S(=O)(=O)N2CCN(C(=O)CC(C)n3nc(C)c(Cl)c3C)CC2)cc1 (stereo not given) | inactive: -22% | – | –
O=C(C[n+]1cccc2cc(Cl)ccc21)c1ccc(Br)cc1 | inactive: -16.7% [at 114 µM] | – | –
CN(C)C(=O)CSc1nc(-c2ccccc2)c(-c2ccccc2)o1 | inactive: -14.3% | – | –
C[C@@H]1CCC(=O)N(CC[C@H](Oc2ccccc2)c2ccccc2)CC1 | – | inconclusive: 55.5 µM [inhibitor, single point] | –
COc1cccc(CN(C)C(=O)c2cnn(-c3ncc4c(n3)-c3ccccc3CCC4)c2C)c1 | – | inconclusive: 44.1 µM [inhibitor, partial curve] | –
C(=N\N1CCN(C(c2ccccc2)c2ccccc2)CC1)/c1ccc2c(c1)OCO2 | – | active: 84.9 µM | –
Cc1noc(C)c1C(=O)N(CC(C)C)c1nc2ccccc2s1 | – | inconclusive: 26.9 µM [inhibitor, full curve] | –
CCOc1ccccc1OCC(=O)Nc1cc(S(=O)(=O)N2CCCCC2)ccc1N1CCN(CC)CC1 | – | inconclusive: 84.9 µM [inhibitor, single point] | –
COc1ccc(-c2nc3cc(C)ccc3cc2CN(C(=O)c2cccs2)C2CC2)cc1OC | – | active: 49.4 µM | –
Cn1c(=O)c2c(nc(NCCc3ccccc3)n2CC(=O)NCCc2ccccc2)n(C)c1=O | – | inconclusive: 95.3 µM [inhibitor, single point] | –
Cc1cccc(C(=O)Nc2cc(S(=O)(=O)N3CCOCC3)ccc2N2CCCC2)c1 | inactive: -22.3% [at 114 µM] | – | –
O=C1c2cccc3cccc(c23)N1Cc1cccc(F)c1 | – | inconclusive: 7.57 µM [inhibitor, partial curve, poor fit] | –
Cc1onc(-c2c(Cl)cccc2Cl)c1COC(=O)c1ccc(Cl)cc1 | inactive: 15.4% [at 114 µM] | – | –

Structure (SMILES) | activity change, negative = inhibition | Potency | outcome
Cc1cc(S(=O)(=O)N2CCN(CC(=O)N(C)Cc3ccccc3)CC2)ccc1Br | – | inconclusive: 33.8 µM [inhibitor, partial curve, poor fit] | –
Clc1cccc(-c2ccc3nccn3c2)c1Cl | – | inconclusive: 19 µM [inhibitor, full curve] | –
C(=C\c1ccnc2ccccc12)/c1ccc2ccccc2n1 | – | inconclusive: 19.7 µM [inhibitor, full curve] | –
CNc1nc(C)cc(C)c1S(=O)(=O)c1ccc(C)cc1 | – | inconclusive: 2.69 µM [inhibitor, partial curve] | –
COc1ccc(NS(=O)(=O)c2cc(N)ccc2N2CCCCC2)cc1 | – | inconclusive: 23.9 µM [inhibitor, full curve] | –
COC(=O)CSc1nc2c(c(=O)n(C)c(=O)n2C)n1CCCc1ccccc1 | inactive: -17% | – | –
COc1ccc(-c2cc(C(F)(F)F)nc(SCC(=O)N3CCCCC3C)n2)cc1OC (stereo not given) | – | – | inactive [at 12.7 µM]
CCOc1nc(-c2ccccc2)c2cc(C)ccc2n1 | – | inconclusive: 37.9 µM [inhibitor, partial curve] | –
COc1nc(-c2ccccc2)c2cc(Br)ccc2n1 | – | inconclusive: 8.49 µM [inhibitor, single point] | –
COc1ccc(C(=O)n2c(-c3ccco3)nc3ccccc32)cc1 | – | inconclusive: 2.13 µM [inhibitor, partial curve] | –
COc1ccc([C@H]2CC(=O)C=C(c3cc(OC)ccc3OC)C2)cc1 | – | inconclusive: 42.6 µM [inhibitor, partial curve] | –
O=c1cnc2cnc(Oc3cccc(Cl)c3)nc2n1Cc1ccc(F)cc1 | – | inconclusive: 87.9 µM [inhibitor, single point] | –
CC(C)(C)c1ccc(OCC(=O)Nc2ccc(C(=O)Nc3ccccc3C(=O)O)cc2)cc1 | – | inconclusive: 67.5 µM [inhibitor, partial curve] | –
CCc1c(C)c(C#N)c2nc3ccccc3n2c1-n1nc(C)cc1C | – | inconclusive: 2.69 µM [inhibitor, partial curve] | –
CC[C@H]1c2[nH]c3ccc(C(C)C)cc3c2[C@@H]2CCN3C(=O)CCC[C@H]1[C@H]23 | inactive: -9.81% [at 114 µM] | – | –
CCOC(=O)c1c(C)cc(OC)cc1O | – | inconclusive: 15.6 µM [inhibitor, partial curve] | –
Cc1cccn2cc(CCNC(=O)c3ccco3)nc12 | inactive: -4.13% | – | –
CNC(=O)NC(=O)C(NC1CCCc2ccccc21)c1ccccc1 (stereo not given) | – | active: 47.8 µM | –
CN(C)c1ccc(/C=C(\C#N)c2ccccn2)cc1 | – | inconclusive: 67.5 µM [inhibitor, partial curve, poor fit] | –
CC(=O)NC(c1ccc(Cl)cc1)c1ccc2cccnc2c1O (stereo not given) | – | inconclusive: 6.75 µM [inhibitor, single point] | –

12 of the compounds above, as tab-separated lines.
Structure (SMILES)	activity change, negative = inhibition	Potency	outcome
Cc1cc(S(=O)(=O)N2CCN(CC(=O)N(C)Cc3ccccc3)CC2)ccc1Br	–	inconclusive: 33.8 µM [inhibitor, partial curve, poor fit]	–
Clc1cccc(-c2ccc3nccn3c2)c1Cl	–	inconclusive: 19 µM [inhibitor, full curve]	–
C(=C\c1ccnc2ccccc12)/c1ccc2ccccc2n1	–	inconclusive: 19.7 µM [inhibitor, full curve]	–
CNc1nc(C)cc(C)c1S(=O)(=O)c1ccc(C)cc1	–	inconclusive: 2.69 µM [inhibitor, partial curve]	–
COC(=O)CSc1nc2c(c(=O)n(C)c(=O)n2C)n1CCCc1ccccc1	inactive: -17%	–	–
COc1ccc(-c2cc(C(F)(F)F)nc(SCC(=O)N3CCCCC3C)n2)cc1OC (stereo not given)	–	–	inactive [at 12.7 µM]
COc1ccc(C(=O)n2c(-c3ccco3)nc3ccccc32)cc1	–	inconclusive: 2.13 µM [inhibitor, partial curve]	–
O=c1cnc2cnc(Oc3cccc(Cl)c3)nc2n1Cc1ccc(F)cc1	–	inconclusive: 87.9 µM [inhibitor, single point]	–
CC(C)(C)c1ccc(OCC(=O)Nc2ccc(C(=O)Nc3ccccc3C(=O)O)cc2)cc1	–	inconclusive: 67.5 µM [inhibitor, partial curve]	–
CCc1c(C)c(C#N)c2nc3ccccc3n2c1-n1nc(C)cc1C	–	inconclusive: 2.69 µM [inhibitor, partial curve]	–
CCOC(=O)c1c(C)cc(OC)cc1O	–	inconclusive: 15.6 µM [inhibitor, partial curve]	–
CNC(=O)NC(=O)C(NC1CCCc2ccccc21)c1ccccc1 (stereo not given)	–	active: 47.8 µM	–
